From PMC7660923

How the values were obtained:
[1] = target: mPR-GFP ΔC, mPRβ lacking the last 12 residues (Xenopus laevis); assay: co-IP; GFP-tagged bait from lysates of about 70 mRNA-injected X. laevis oocytes (30 mM HEPES, 100 mM NaCl, pH 7.5, protease and phosphatase inhibitors; solubilised with 4% NP40 for 1 hour) captured on anti-GFP microbeads; western blot for APPL1, total Akt and GFP; oocytes untreated or treated with P4 (10^-5 M) over a time course
[2] = target: mPR-GFP ΔN (1-70), mPRβ lacking the cytosolic N-terminal domain (Xenopus laevis); assay: as above

B1: endogenous APPL1 (Adapter protein containing Pleckstrin homology domain, Phosphotyrosine binding domain and Leucine zipper motif 1) of Xenopus oocytes (protein, UniProt A0A8J0PTU5 1-708)
chain: MLGTDKLPIEETLEDSPQTRSLLGVFEEDAAAISSYSNQLFHAMRRIYDAQNELSAATHLTSKLLKEYEKQRFPLGGDDEVMTSTLQQFSKVIDELSSCHAVLSTQLADAMMFPIGQFKERDLKEILTLKEVFQISSNDHDVAINRYSRLSKRRENEKTKFEATEDVYTARKKQHQTMMHYFCALNTIQYKKKTAILEPLLGYMQAQINFFKMGSENLNSQLEEFLSNIGSSVQSVRREMDNEVENMQQTIQDMEAASEPLYLPDPDPKKLPVNRNLTRKAGYLNIRNKTGLVSSSWDRHYFFTQGGNLMSQARGDVAGGLVMDIDNCTVMAVDSEDRRYCFQITSFDGKKAVILQAESKKDCEEWISTINNISKRIYLTDNPEETAARVNQSALEAVTPSPSFQQRHESMRPAVPSRPHARRTSSTGSVGSDSSALTALSLDSIVAPDTPIQFDIISPVSEDQSGQPRTPGQTGRRTNPFGESGEKSESEDSILHQLFIVRFLGSMEVKSDENTEVVYETMRQILAARAIHNIFRMTESHLLVTCDCLKLIDPQTQVTRLRFPLAHIVLYATHQENKRLFGFVLRTAGGRAEGRPVSVCYIFESNNEGEKICDSVGLAKQIALHAELDRRASDKQKEIEKVKEKQQKEISKQKQIEKDLEEQSRLIAASSRPNQPNAEGQFVVLSSSQSEESDVGEEGKKKQRESEA
binding [1]: no binding
binding [2]: no binding

These are yes or no findings as the source states them, for the method shown. Binding seen in cells or lysates may run through a third protein.
